Entries after “also recorded” stand apart in the source; their conditions may differ. At least one compound was matched to its structure with a doubt left.
Key:
HIF-1α [1] = assay: Nuclear HIF-1α accumulation in human cancer cell lines (western blot); type: cell-based; settings: for HIF-1α accumulation induced by metabolite: substituted for glucose in Krebs buffer, four hours, normoxia
Method: Human U87, U251, U251-HRE (20) and U373 glioma cells were cultured in Eagle's MEM medium (Mediatech). […] 22B Human head and neck cancer cells were cultured in high glucose DMEM (Gibco) containing 2 mM glutamine. C6 ODD-GFP rat glioma cells were cultured in high glucose DMEM with 1.5 mg/ml G418. All culture media were supplemented with 10% fetal bovine serum and 1% (v/v) penicillin/streptomycin. Rat C6 glioma cells were cultured in high glucose DMEM. For cell hypoxia treatment, the culture dishes were sealed in a modular incubator chamber, flushed with gas containing 1% O2, 5% CO2 and 94% N2 for 5 minutes, and incubated in this environment at 37° C. for indicated times.
Protein extraction, western blot analysis, and immunocytochemistry were performed as previously described. […] Mouse monoclonal anti-β-actin antibody was ab6276-100 (Abcam). Dimethyloxalylglycine was D1070 (Frontier Scientific). All other chemicals were from Sigma.

The chains behind the UniProt entries cited, without tags or fusion partners.
UniProt P40337, whole entry: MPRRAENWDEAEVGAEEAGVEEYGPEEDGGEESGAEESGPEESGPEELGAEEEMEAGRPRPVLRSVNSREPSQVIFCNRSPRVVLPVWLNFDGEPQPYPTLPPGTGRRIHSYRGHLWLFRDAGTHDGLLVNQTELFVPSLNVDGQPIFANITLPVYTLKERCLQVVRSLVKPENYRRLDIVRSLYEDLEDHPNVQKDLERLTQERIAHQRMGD

CAIX, GLUT3, MMP-2 = assay: Quantitative RT-PCR of HIF-1 regulated genes in 22B cells; type: cell-based, human
HIF-1 = HIF-1 luciferase reporter assay in U251-HRE cells; type: cell-based, human; settings: for induction of HIF-1 regulated reporter gene (HRE-luciferase): 8 h
ODD-GFP = assay: Live cell assay for oxygen-dependent degradation, ODD-GFP transfected C6 glioma cells; type: cell-based, rat; settings: for stimulation of basal ODD-GFP accumulation: C6 cells in Krebs buffer, 24 hours
Method: (§1) Human U87, U251, U251-HRE (20) and U373 glioma cells were cultured in Eagle's MEM medium (Mediatech). DU145 human prostate cancer cells and 022 human head and neck cancer cells were cultured in RPMI 1640 medium (Sigma). 22B Human head and neck cancer cells were cultured in high glucose DMEM (Gibco) containing 2 mM glutamine. C6 ODD-GFP rat glioma cells were cultured in high glucose DMEM with 1.5 mg/ml G418. All culture media were supplemented with 10% fetal bovine serum and 1% (v/v) penicillin/streptomycin. Rat C6 glioma cells were cultured in high glucose DMEM. For cell hypoxia treatment, the culture dishes were sealed in a modular incubator chamber, flushed with gas containing 1% O2, 5% CO2 and 94% N2 for 5 minutes, and incubated in this environment at 37° C. for indicated times.
Next a live cell assay for oxygen-dependent HIF-1α degradation using C6 rat glioma cells that had been stably transfected with a vector encoding the HIF-1 cc ODD region fused to GFP (ODD-GFP) was performed. The ODD-GFP protein is hydroxylated and degraded in an oxygen dependent manner similar to HIF-1α. As with HIF-1α, a basal, as well as, hypoxia-inducible accumulation of ODD-GFP has been reported.

HPH [2] = assay: HPH activity in extracts of treated U251 cells (35S-pVHL pulldown); type: cell-based, human; settings: for HPH activity in extracts of cells treated for four hours: 2 mM pyruvate or oxaloacetate, 1 mM DMOG, no exogenous reductants, ascorbate or iron
Method: (§2) Human HPH-1,2,3 and VHL pcDNA3.1/V5-HIS vectors (kindly provided by R. Bruick) were used for TNT Coupled Reticulocyte Lysate in vitro transcription/translation (Promega). Cytoplasmic extract for HPH activity was made by lysing cell pellets in assay buffer (20 mM Tris, pH 7.5, 5 mM KCl, 1.5 mM MgCl2, and 1 mM DTT) at 4° C. using a homogenizer, centrifuging at 20,000 g for 15 minutes and collecting supernatant for the assay. HPH enzymatic reactions were performed as previously described using either IVT products or cell extracts. This assay, chosen for its specificity for the HPH reaction, was linear over 30 minutes. For each reaction, either 7.5 μL of IVT products or 100 μg of cell extract protein were used as source of the enzyme. Activity was measured by either quantitative scintillation counting or by autoradiography after gel electrophoresis on a 10-20% Tris Glycine gradient gel (Invitrogen).
(§3) To test this U251 cells was exposed to glucose-free Krebs buffer to either hypoxia (1% O2) or 2 mM pyruvate for four hours. Nuclear HIF-1α protein accumulation was induced by both treatments (FIG. 6A). Then the cells were either returned to 21% O2 or the pyruvate was removed by extensively washing with glucose-free Krebs buffer. HIF-1α immunoreactivity disappeared rapidly upon reoxygenation (return to 21% O2) of hypoxic cells as would be expected with the resumption of oxygen-dependent HIF-1α hydroxylation and proteolysis. […] To directly determine if the HPH activity in glioma cells was reversibly inactivated by pyruvate and oxaloacetate the ^35S-pVHL pulldown assay to measure HPH activity in extracts from cells treated for four hours with the 2-oxoacids was used. To capture the endogenous state of HPH activity, the cell extracts were first assayed without supplementation with exogenous reductants, ascorbate, or iron. […] The minimal HPH activity of extracts from pyruvate or oxaloacetate treated cells could also be restored by supplementation of the extracts with ascorbate or with exogenous ferrous iron (FeSO4) during the assay (FIG. 6D).

22B cells = assay: Cell invasion assay (Matrigel); type: cell-based, human
HIF-1α [3] = assay: HIF-1α decay after washout of inducer; type: cell-based, human; settings: for nuclear HIF-1α after washout of 2-oxoacid: U87 cells, 40 minutes after washout
Method: as §1
(§4) Protein extraction, western blot analysis, and immunocytochemistry were performed as previously described. Mouse monoclonal anti-HIF-1α antibodies were 610958 (BD Biosciences), and NB100-123 (Novus). Mouse monoclonal anti-GFP antibody was 1814460 (Roche). Mouse monoclonal anti-β-actin antibody was ab6276-100 (Abcam). Dimethyloxalylglycine was D1070 (Frontier Scientific). All other chemicals were from Sigma. Antibodies recognizing HPH homologues were from Novus biologicals and the antisera recognizing […] of HIF-1α was kindly provided by R. Freeman.
as §3, with “Then the cells were either returned to 21% O2 or the pyruvate was removed by extensively washing with glucose-free Krebs buffer.” left out

HIF-1α [4] = assay: HIF-1α accumulation in 22B head and neck cancer cells; type: cell-based, human; settings: 22B cells
Method: as §1, §4

HPH [5] = assay: HPH activity in 22B cell extracts (35S-pVHL capture assay); type: cell-based, human; settings: 100 μM ascorbate
HPH1, HPH2, and HPH3 = assay: HPH prolyl hydroxylation assay with in vitro translated HPHs (35S-pVHL pulldown); type: biochemical, human; settings: for inhibition of 2-OG supported HPH enzymatic activity: all three homologues, over a window of ascorbate concentrations; for enzyme activity when 2-OG replaced by 2-oxoacid: identical concentrations (2 mM), three HPH homologues
Method: as §2
To determine whether HPH activity was directly modulated by pyruvate or oxaloacetate, Pro564 hydroxylation in a biotinylated HIF-1α ODD peptide by in vitro translated HPH1, HPH2, and HPH3 was examined. The ability of streptavidin beads to pull down ^35S-pVHL bound to the biotinylated peptide was used as evidence of HIF-1α ODD peptide hydroxylation. This is the most specific and sensitive assay for HPH activity. […] Such assays can also give high background values in cell extracts.

[6] = target: T1, 35S-pVHL binding to hydroxylated HIF ODD peptide (Homo sapiens, UniProt P40337); assay: VHL: ODD binding assay; settings: 10 mM pyruvate or oxaloacetate
T1 construct: V5-HIS (vector-encoded); made in house; host or cells: rabbit reticulocyte lysate, TNT coupled in vitro transcription/translation (Promega)

U251 cells = assay: Cellular reactive oxygen species and nitrite measurements; type: cell-based, human
HIF-1α [7] = assay: HIF-1α hydroxyproline detection in U251 whole cell extracts; type: cell-based, human; settings: U251, four hours, antibody to hydroxylated ODD region
Method: as §4
Some reactive oxygen species can also induce HIF-1α. […] Next, attention was focused on HIF-1α proline hydroxylation as a target for 2-oxoacids.

HPH [8] = assay: 2-Oxoglutarate: HPH binding assay; design: species or system human; settings: competitor 10 mM
Method: Gel was washed four times with the indicated buffer. Analysis of HPH binding was measured by scintillation counting.

[9] = system: labile intracellular iron pool; assay: Calcein fluorescence assay for cellular free iron; type: cell-based, human; settings: calcein loaded U251 cells
Method: The ability of 2-oxoacids to chelate the labile intracellular iron pool was measured using the calcein fluorescence assay as previously described. The iron chelators desferrioxamine and bipyridyl were used as positive controls.

U251 glioma cells = assay: EF-5 assay for cellular hypoxia; type: cell-based, human; settings: U251, normoxia, four hours

| SMILES | HIF-1α accumulation induced by metabolite (HIF-1α [1]) | induction of HIF-1 regulated reporter gene (HRE-luciferase) (HIF-1) | stimulation of basal ODD-GFP accumulation (ODD-GFP) | HPH activity in extracts of cells treated for four hours (HPH [2]; U251) | inhibition of 35S-pVHL binding to hydroxylated ODD [6] | nuclear HIF-1α after washout of 2-oxoacid (HIF-1α [3]) | H2O2 or NO levels upon treatment (U251 cells) | hydroxyproline (Pro564) in induced HIF-1α (HIF-1α [7]) | displacement of iron dependent binding of 35S-HPHs to immobilized 2-OG (HPH [8]) | intracellular calcein fluorescence [9] | inhibition of 2-OG supported HPH enzymatic activity (HPH1, HPH2, and HPH3) | enzyme activity when 2-OG replaced by 2-oxoacid (HPH1, HPH2, and HPH3) | other results |
| --- | --- | --- | --- | --- | --- | --- | --- | --- | --- | --- | --- | --- | --- |
| O=C(O)C(=O)Cc1ccccc1 [Phenylpyruvate] | not able to induce HIF-1α accumulation | – | – | – | – | – | – | – | – | – | – | – | – |
| O=C1O[C@H]([C@@H](O)CO)C(O)=C1O [ascorbate] | – | – | – | – | – | – | – | – | – | – | – | – | reversal of HIF-1α induction by hypoxia or DMOG (HIF-1α [1]; U87 and U251, glucose-free Krebs buffer): neither ascorbate or 2-OG could reverse; reversal of HIF-1α induction by 3 mM pyruvate or oxaloacetate (HIF-1α [1]; U87 and U251, glucose-free Krebs buffer, 100 μM ascorbate, 10 mM 2-OG): completely reversed; NO induced HIF-1α accumulation (HIF-1α [1]; U251, MEM, DETA-NO 300 μM, ascorbate 100 μM, Fe(II) 100 μM, GSH 5 mM): complete inhibition; basal expression of HIF-1 regulated genes CAIX, GLUT3 and MMP-2 (CAIX, GLUT3, MMP-2): lowered the basal expression; reversal of HIF-1 reporter gene induction by the 2-oxoacids (HIF-1): selectively reversed; reversal of HRE-luciferase activation by hypoxia or DMOG (HIF-1): did not reverse; basal ODD-GFP accumulation (ODD-GFP; C6 cells cultured in DMEM media for 24 hours): selectively inhibited; HPH activity of extracts from pyruvate or oxaloacetate treated cells, extract supplemented during assay (HPH [2]; 100 μM each): restored; loss of HPH activity by 2-oxoacids in cells co-treated with agent (HPH [2]; U251, 100 μM ascorbate): This reduction was not seen; serum-induced invasiveness (22B cells): without affecting; basal invasiveness through Matrigel (22B cells; 48 hours): lowered the basal invasiveness; HIF-1α decay with agent added to the wash (HIF-1α [3]; U87 after pyruvate or oxaloacetate, 100 μM ascorbate, 5 mM GSH or MEM amino acid mixture): HIF-1α decay was rapidly resumed; basal HIF-1α buildup (HIF-1α [4]): ascorbate-reversible; hypoxia or DMOG stimulated HIF-1α (HIF-1α [4]): did not reverse; accumulated (pyruvate-enhanced) HIF-1α after supplementation (HIF-1α [4]; 100 μM each, last 30 minutes after 24 hours accumulation): abolished immunoreactivity; also recorded: readily reversed; basal HIF-1α buildup (HIF-1α [4]; listed as Ascorbate): selectively lowers basal HIF-1α buildup; 35S-pVHL capture signal (HPH activity) with agent added to cell extracts (HPH [5]): raised the overall ^35S-pVHL capture signal; reversal of 2-oxoacid inhibition of HPHs (HPH1, HPH2, and HPH3; ascorbate at 1 mM): reversed the 2-oxoacid inhibition of all HPHs; relative reversal of 2-oxoacid inhibition, HPH2 and HPH3 vs HPH1 (HPH1, HPH2, and HPH3; range of ascorbate concentrations): more potently reversed by ascorbate than HPH1 |
| O=C(O)CC(=O)C(=O)O [oxaloacetate] | active in all cancer cell lines used in this study | as effectively as hypoxia or DMOG | stimulated | clearly reduced HPH activity | neither pyruvate nor oxaloacetate was found to inhibit | Persistent nuclear HIF-1α | no) detection of an increase in H2O2 or NO levels | did not contain hydroxyproline | reversed the iron dependent binding | did not produce an increase | Inhibition of the 2-OG supported enzymatic activity; also recorded: reduced enzymatic activity in a specific window of ascorbate concentrations | no enzyme activity was detected; also recorded: could not replace 2-OG as productive substrates | – |
| CC(=O)C(=O)O [pyruvate] | active in all cancer cell lines used in this study | as effectively as hypoxia or DMOG | stimulated | clearly reduced HPH activity | neither pyruvate nor oxaloacetate was found to inhibit | Persistent nuclear HIF-1α | no) detection of an increase in H2O2 or NO levels | did not contain hydroxyproline | reversed the iron dependent binding | did not produce an increase | Inhibition of the 2-OG supported enzymatic activity | no enzyme activity was detected | nuclear HIF-1α decay after washing out inducer (HIF-1α [3]; U251, four hours treatment, glucose-free Krebs wash): did not decay promptly; EF-5 adducts (cellular hypoxia) (U251 glioma cells): no adducts were found; progressive accumulation of HIF-1α with excess pyruvate (HIF-1α [4]; 10 mM in DMEM, 24 hours): markedly enhanced the progressive accumulation of HIF-1α; inhibition of 2-OG supported HPH enzymatic activity (HPH1, HPH2, and HPH3; listed as Pyruvate): reduced enzymatic activity in a specific window of ascorbate concentrations; enzyme activity when 2-OG replaced by 2-oxoacid (HPH1, HPH2, and HPH3; listed as Pyruvate): could not replace 2-OG as productive substrates |
